Test results as given in PubChem BioAssay (EPA / NIEHS).
Several values for one entry are separate records, joined by “and”; a condition that tells them apart may be missing. Equal values may be shown once. The inconclusive results got no clear call from the source; some entries with a clear call stand among them for comparison. For some of these results: Where the call is inconclusive, the potency comes from a doubtful curve fit. Activity calls are given as the source filed them. How the source made its calls: active means hit-call score of the fitted dose curve at least 0.9, where 1 is the maximum; inconclusive means response in the unintended direction; inactive means score below 0.9.

By UniProt entry, the sequences of proteins in these tests, tags left out. Where a name states a change or a piece, a line headed by the entry shows the natural chain unless it says otherwise.
UniProt P49884, whole entry, looked up: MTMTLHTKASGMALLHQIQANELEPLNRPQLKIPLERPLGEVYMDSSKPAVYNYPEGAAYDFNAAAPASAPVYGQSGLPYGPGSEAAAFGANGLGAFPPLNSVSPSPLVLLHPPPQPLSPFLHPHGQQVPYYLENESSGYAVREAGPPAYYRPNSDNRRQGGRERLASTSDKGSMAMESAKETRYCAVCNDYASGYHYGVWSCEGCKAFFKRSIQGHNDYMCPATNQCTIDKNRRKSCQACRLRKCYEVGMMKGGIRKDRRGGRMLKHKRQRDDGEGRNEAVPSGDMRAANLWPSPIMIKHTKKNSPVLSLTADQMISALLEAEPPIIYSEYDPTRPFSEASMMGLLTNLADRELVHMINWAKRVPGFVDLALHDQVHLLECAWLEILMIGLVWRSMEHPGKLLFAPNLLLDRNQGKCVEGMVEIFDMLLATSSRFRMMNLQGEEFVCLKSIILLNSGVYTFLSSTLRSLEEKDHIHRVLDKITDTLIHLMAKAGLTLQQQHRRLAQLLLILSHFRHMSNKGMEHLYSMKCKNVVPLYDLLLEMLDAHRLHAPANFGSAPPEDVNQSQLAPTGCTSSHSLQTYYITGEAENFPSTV
UniProt P33261, whole entry, looked up: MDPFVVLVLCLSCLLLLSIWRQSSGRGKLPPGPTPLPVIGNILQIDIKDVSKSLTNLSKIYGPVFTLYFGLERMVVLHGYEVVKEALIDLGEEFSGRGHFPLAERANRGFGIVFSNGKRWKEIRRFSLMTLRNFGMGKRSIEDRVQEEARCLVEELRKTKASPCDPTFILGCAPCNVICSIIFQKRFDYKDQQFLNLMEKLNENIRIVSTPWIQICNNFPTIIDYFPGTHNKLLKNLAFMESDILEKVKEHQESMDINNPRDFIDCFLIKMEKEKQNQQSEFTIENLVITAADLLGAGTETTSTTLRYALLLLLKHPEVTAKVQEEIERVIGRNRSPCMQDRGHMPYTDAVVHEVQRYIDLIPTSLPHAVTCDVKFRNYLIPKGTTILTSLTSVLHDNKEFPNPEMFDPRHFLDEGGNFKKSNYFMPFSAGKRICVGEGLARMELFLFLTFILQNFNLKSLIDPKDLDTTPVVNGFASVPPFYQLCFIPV
UniProt Q92731, whole entry, looked up: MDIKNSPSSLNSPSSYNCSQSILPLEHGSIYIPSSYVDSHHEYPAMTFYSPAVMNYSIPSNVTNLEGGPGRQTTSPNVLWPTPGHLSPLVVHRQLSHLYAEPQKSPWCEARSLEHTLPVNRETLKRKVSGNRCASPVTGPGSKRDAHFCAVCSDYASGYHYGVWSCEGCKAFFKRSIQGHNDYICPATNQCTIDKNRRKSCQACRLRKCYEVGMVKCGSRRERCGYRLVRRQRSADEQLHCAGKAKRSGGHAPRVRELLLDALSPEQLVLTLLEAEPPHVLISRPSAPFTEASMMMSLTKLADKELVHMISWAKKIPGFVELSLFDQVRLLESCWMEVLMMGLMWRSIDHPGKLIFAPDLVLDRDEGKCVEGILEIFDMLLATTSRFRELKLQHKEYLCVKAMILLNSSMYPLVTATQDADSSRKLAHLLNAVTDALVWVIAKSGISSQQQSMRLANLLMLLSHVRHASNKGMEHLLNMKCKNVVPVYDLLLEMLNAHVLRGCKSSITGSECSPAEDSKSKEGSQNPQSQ
UniProt Q96RI1: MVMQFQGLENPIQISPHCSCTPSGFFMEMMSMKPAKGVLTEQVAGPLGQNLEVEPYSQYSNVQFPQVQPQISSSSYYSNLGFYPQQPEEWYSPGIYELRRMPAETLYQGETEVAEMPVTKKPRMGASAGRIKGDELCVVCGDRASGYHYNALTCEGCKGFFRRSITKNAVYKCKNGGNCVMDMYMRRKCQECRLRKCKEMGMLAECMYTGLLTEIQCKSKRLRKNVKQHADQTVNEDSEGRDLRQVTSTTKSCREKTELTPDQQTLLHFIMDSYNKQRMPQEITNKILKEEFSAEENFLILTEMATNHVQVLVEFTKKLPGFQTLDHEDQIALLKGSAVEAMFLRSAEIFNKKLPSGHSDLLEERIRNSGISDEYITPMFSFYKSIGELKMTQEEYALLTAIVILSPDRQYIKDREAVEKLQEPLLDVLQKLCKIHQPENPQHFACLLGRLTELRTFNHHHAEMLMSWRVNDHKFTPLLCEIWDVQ
UniProt P19785, whole entry, looked up: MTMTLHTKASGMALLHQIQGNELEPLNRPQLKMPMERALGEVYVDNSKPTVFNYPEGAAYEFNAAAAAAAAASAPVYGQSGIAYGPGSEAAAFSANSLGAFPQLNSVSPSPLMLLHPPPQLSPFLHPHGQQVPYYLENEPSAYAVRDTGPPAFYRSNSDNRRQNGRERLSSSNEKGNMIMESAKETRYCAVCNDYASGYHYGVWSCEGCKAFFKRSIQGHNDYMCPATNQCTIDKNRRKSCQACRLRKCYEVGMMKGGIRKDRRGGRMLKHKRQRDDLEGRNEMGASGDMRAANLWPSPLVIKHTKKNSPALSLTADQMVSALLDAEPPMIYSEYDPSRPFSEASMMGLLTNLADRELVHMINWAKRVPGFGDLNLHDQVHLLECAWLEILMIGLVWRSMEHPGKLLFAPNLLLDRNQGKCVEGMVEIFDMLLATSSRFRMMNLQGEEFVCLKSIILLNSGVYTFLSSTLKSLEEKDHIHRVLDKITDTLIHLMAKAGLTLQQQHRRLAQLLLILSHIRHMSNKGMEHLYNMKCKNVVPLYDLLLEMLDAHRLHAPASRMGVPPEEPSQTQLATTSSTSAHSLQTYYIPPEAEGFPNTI
UniProt O75469: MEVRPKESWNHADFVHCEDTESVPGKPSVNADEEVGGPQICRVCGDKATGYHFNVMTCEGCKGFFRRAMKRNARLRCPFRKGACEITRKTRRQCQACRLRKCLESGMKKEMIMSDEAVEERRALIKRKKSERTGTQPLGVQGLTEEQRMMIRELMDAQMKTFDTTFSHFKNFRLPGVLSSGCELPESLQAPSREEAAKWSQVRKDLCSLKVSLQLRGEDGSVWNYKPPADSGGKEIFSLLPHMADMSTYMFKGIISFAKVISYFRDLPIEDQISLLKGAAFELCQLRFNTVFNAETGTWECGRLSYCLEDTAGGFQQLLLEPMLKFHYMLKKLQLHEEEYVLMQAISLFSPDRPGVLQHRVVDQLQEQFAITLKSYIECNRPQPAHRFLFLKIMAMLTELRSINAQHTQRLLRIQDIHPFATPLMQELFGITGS
UniProt P42336, whole entry, looked up: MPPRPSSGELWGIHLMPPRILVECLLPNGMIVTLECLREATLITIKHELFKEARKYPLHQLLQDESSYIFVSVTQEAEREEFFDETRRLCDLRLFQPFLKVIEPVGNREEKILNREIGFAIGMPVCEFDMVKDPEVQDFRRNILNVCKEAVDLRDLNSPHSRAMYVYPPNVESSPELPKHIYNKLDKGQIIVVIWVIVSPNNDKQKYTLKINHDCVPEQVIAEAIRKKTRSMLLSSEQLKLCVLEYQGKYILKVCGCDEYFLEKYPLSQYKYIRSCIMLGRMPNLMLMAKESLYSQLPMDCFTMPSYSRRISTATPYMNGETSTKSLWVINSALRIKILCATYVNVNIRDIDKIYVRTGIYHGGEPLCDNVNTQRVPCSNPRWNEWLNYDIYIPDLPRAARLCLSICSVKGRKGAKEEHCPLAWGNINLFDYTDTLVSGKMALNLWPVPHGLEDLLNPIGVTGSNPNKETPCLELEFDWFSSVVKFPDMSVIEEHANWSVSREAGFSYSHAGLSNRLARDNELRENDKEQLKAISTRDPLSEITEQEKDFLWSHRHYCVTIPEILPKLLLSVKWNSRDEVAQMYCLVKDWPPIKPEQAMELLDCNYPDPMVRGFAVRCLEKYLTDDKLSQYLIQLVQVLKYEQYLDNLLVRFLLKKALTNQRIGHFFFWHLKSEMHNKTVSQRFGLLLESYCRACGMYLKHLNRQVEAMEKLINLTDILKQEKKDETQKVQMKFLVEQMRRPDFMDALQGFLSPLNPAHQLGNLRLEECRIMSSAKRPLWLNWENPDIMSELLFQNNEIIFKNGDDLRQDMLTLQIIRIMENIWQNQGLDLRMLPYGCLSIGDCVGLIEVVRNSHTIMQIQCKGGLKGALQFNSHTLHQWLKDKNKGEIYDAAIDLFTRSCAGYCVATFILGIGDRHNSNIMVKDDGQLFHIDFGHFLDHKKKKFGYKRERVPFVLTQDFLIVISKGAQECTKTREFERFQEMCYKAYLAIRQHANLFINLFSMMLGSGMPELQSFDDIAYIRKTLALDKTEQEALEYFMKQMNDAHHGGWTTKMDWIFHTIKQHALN
UniProt P21709: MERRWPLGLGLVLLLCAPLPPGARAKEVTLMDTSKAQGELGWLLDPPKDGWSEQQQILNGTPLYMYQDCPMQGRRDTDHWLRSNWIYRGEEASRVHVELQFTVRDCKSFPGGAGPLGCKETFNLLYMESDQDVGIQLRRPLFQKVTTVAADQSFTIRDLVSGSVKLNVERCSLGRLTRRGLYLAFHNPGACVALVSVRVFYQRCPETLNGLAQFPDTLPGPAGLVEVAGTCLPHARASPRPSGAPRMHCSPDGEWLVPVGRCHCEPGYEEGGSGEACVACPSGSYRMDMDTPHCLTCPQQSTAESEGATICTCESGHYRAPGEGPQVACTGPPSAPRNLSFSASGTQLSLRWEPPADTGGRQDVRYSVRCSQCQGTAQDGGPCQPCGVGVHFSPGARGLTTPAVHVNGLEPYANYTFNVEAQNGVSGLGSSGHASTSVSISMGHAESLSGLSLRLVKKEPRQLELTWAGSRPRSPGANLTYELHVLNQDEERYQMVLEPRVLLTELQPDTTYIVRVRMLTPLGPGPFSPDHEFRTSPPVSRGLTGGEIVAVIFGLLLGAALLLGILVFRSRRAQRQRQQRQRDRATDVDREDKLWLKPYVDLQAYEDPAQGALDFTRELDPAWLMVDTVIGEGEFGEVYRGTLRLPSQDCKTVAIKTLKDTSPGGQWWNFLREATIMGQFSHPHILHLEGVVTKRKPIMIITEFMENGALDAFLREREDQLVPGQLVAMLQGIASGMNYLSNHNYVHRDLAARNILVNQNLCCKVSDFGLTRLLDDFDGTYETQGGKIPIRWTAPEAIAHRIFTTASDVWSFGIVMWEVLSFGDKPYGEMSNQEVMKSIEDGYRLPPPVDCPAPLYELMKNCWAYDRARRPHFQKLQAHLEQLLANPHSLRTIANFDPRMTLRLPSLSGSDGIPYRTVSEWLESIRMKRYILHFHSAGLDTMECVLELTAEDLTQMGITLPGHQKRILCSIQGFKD

Tests used:
[1] = target: bovine Estrogen Receptor (ER), ESR1 (gene 407238) (UniProt P49884); experiment: NVS_NR_bER: NovaScreen (NVS) Nuclear Receptor Binding Assay for bovine Estrogen Receptor (ER) (AID 2283345);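 further: actives lower the bound radioligand count which means they displace the ER ligand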
Summary of the method: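 Displacement of a radioligand from estrogen receptor in bovine uterine membrane preparations; scintillation signal taken at 18 hours, DMSO as baseline. Single-concentration duplicates (25 uM) preceded concentration-response follow-up of actives.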

[2] = Tanguay_ZF_120hpf_TRUN_legacy: (Legacy) Oregon State University Tanguay Lab 120 Hour Post-fertilization zebrafish Assay for Truncated Body (AID 2283655)
Summary of the method: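 Binary presence/absence of truncated body is recorded at 120 hpf by brightfield, with non-mortality endpoints skipped after death. Exposure is static from 6 hpf in sealed dark plates at 28C, using dechorionated wild-type zebrafish, 0.64% DMSO.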

[3] = read-out: Cytochrome P450 2C19 (Homo sapiens) (UniProt P33261); experiment: CLD_CYP2C19_24hr: CellzDirect (CLD) Gene Expression Assay for xenobiotic metabolism (CYP2C19) at 24 hours (AID 2283687)
Summary of the method: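 Primary human hepatocytes (two donor preparations) dosed daily with fresh test chemical in 0.2% DMSO vehicle; CYP2C19 mRNA induction measured at 24 h by quantitative nuclease protection assay with chemiluminescence, fitted for gain of signal versus DMSO.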

[4] = CLD_ACTIN_48hr: CellzDirect (CLD) Gene Expression Assay for Baseline Control (Actin) at 48 hours (AID 2283702)
Summary of the method: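 Primary human hepatocytes (two donor preparations) dosed daily for two days with ToxCast chemicals at multiple concentrations versus 0.2% DMSO vehicle; harvested at 48 h. Actin mRNA measured as a background control by quantitative nuclease protection assay with chemiluminescence.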

[5] = target: Estrogen receptor beta (Homo sapiens) (UniProt Q92731); experiment: OT_ER_ERbERb_0480: Odyssey Thera (OT) 8-hour HEK293T Protein-Complementation Assay for Estrogen Receptor-beta/-beta Homodimer (AID 2283357);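 further: active means signal gain over DMSO baseline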
Summary of the method: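 Fluorescence intensity, nuclear for agonists and nuclear plus cytoplasmic for antagonists, was quantified by laser scanning cytometry versus vehicle after 8 h treatment. The cells were HEK293T stably carrying ER beta LBD fragment-complementation partners.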

[6] = target: Bile acid receptor (Homo sapiens) (UniProt Q96RI1); experiment: OT_FXR_FXRSRC1_0480: Odyssey Thera (OT) 8-hour HEK293T Protein-Complementation Assay for Farnesoid X receptor/SRC-1 Co-activator (AID 2283383)
Summary of the method: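 Co-activator recruitment to FXR was measured in living HEK293T cells, where interaction of the two fused partners restored an active fluorescent reporter. Signal gain after 8 h treatment was referenced to DMSO.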

[7] = Tanguay_ZF_120hpf_CFIN_legacy: (Legacy) Oregon State University Tanguay Lab 120 Hour Post-fertilization zebrafish Assay for Caudal Fin Malformation (AID 2283649)
Summary of the method: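 Binary brightfield scoring of caudal fin defects at 120 hpf after static, light-shielded exposure at 28C from 6 hpf. Tropical 5D embryos, chorion removed with pronase at 4 hpf, final DMSO 0.64%.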

[8] = Tanguay_ZF_120hpf_TR_legacy: (Legacy) Oregon State University Tanguay Lab 120 Hour Post-fertilization zebrafish Assay for Touch Response (AID 2283667)
Summary of the method: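 Tropical 5D wild-type zebrafish embryos statically exposed to 120 hpf at 28°C, sealed and dark-covered, 0.64% DMSO final; touch response scored as present/absent by brightfield microscopy at 120 hpf. Trimethyltin chloride 5 uM positive control; dead embryos not scored.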

[9] = target: mouse Estrogen Receptor alpha (Era), Esr1 (gene 13982) (UniProt P19785); experiment: NVS_NR_mERa: NovaScreen (NVS) Nuclear Receptor Binding Assay for mouse Estrogen Receptor alpha (Era) (AID 2283378);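 further: hit means loss of bound radioligand signal relative to DMSO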
Summary of the method: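 Filter radiodetection of radioligand displacement from extracted receptor protein, measured 18 h post-dose. Single 25 uM concentration in duplicate initially, with concentration-series follow-up. Binding loss fitted relative to DMSO.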

[10] = target: Nuclear receptor subfamily 1 group I member 2 (Homo sapiens) (UniProt O75469); experiment: NVS_NR_hPXR: NovaScreen (NVS) Nuclear Receptor Binding Assay for human Pregnane X Receptor (PXR) (AID 2283365);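 further: a drop in FRET signal versus DMSO baseline means the compound binds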
Summary of the method: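 Human PXR binding measured by TR-FRET in a cell-free format, 2 h exposure. Single-concentration duplicates at 25 uM preceded concentration-response retests of actives; endpoint fitted positively relative to DMSO, loss of signal indicating binding.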

[11] = target: human Phosphoinositide 3-kinase alpha (PI3Ka), PIK3CA (gene 5290) (UniProt P42336); experiment: NVS_ENZ_hPI3Ka: NovaScreen (NVS) Enzymatic Assay for human Phosphoinositide 3-kinase alpha (PI3Ka) (AID 2283196)
Summary of the method: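 Enzyme activity as fluorescence after mobility-shift separation of substrate and product, 1 h reaction, recombinant human PI3Kα; concentration-response to 50 uM max for chemicals passing a 25 uM duplicate screen.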

[12] = Tanguay_ZF_120hpf_CIRC_legacy: (Legacy) Oregon State University Tanguay Lab 120 Hour Post-fertilization zebrafish Assay for Circulatory Malformation (AID 2283651)
Summary of the method: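 Using wild-type Tropical 5D zebrafish, we exposed dechorionated embryos from 6 to 120 hpf in embryo medium with 0.64% DMSO. Circulatory defects were scored as present or absent; 5uM trimethyltin chloride served as positive control.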

[13] = CCTE_Shafer_MEA_acute_AB: CCTE's Alamar Blue Assay for Cytotoxicity in the Neural Acute Assay, Shafer Lab (AID 2284069);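 further: active compounds lower the viability signal compared with DMSO wells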
Summary of the method: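 Resazurin reduction (CellTiter Blue, 1:6 in fresh medium) read at ex 544/em 590 nm marks viability loss relative to DMSO. Cells: primary rat cortical neuron networks on microelectrode arrays, treated after baseline recording at 13 or 15 days in vitro.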

[14] = CCTE_Mundy_HCI_hNP1_Pro_ResponderAvgInten: CCTE's Proliferation Assay in human neuroprogenitor cells, Mundy Lab (AID 2284224);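 further: human neural progenitor cells hNP1 derived from WA09 embryonic stem cells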
Summary of the method: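 Proliferation read as average intensity of BrdU-positive cells, imaged at 26.25 h post-dosing: chemical exposure started after 40–44 h culture, BrdU during final 4 h, paraformaldehyde fixation. Positive-direction fit relative to DMSO.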

[15] = target: human Ephrin type-A Receptor 1 (EphA1), EPHA1 (gene 2041) (UniProt P21709); experiment: NVS_ENZ_hEphA1: NovaScreen (NVS) Enzymatic Assay for human Ephrin type-A Receptor 1 (EphA1) (AID 2283158);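 further: activity is signal loss versus DMSO meaning EphA1 kinase inhibition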
Summary of the method: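 Fluorescent substrate conversion, resolved by mobility-shift separation, measured 1 hour post-dosing using recombinant enzyme; signal loss relative to DMSO baseline. Single-concentration duplicates at 25 uM preceded singleton concentration series topping at 50 uM.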

[16] = Tanguay_ZF_120hpf_SOMI_legacy: (Legacy) Oregon State University Tanguay Lab 120 Hour Post-fertilization zebrafish Assay for Somite Malformation (AID 2283647)
Summary of the method: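 Binary somite-defect scoring at 120 hpf, omitted for embryos that died, in wild-type (Tropical 5D) zebrafish with chorion removed by pronase at 4 hpf; static exposure began 6 hpf, single embryos per well, 28C, 0.64% DMSO; fitted positive versus DMSO.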

[17] = CCTE_Shafer_MEA_dev_AB: CCTE's Alamar Blue Assay for Cytotoxicity in the Neural Network Formation Assay, Shafer Lab (AID 2284083);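 further: resazurin reduction fluorescence as viability of cultured neurons; twelve days of exposure from plating with re-dosing on DIV 5 and 9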
Summary of the method: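 Resazurin fluorescence, relative to DMSO, gauges viability after twelve days of exposure that began at plating of rat cortical neurons (1.5 x 10^5 cells/well, 48-well MEA); treatment renewed with full medium exchange on DIV 5 and 9.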

[18] = read-out: sulfotransferase (SULT2A), SULT2A1 (gene 6822); experiment: CLD_SULT2A_6hr: CellzDirect (CLD) Gene Expression Assay for sulfotransferase (SULT2A) at 6 hours (AID 2283669);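 further: hits raise transcript level above the DMSO vehicle baseline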
Summary of the method: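 Primary human hepatocytes from two donor preparations were dosed daily with chemicals or 0.2% DMSO and harvested at 6 h. Transcript induction read by qNPA chemiluminescence, fitted for gain of signal relative to DMSO; morphology-based cytotoxicity annotated.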

[19] = Tanguay_ZF_120hpf_BRAI_legacy: (Legacy) Oregon State University Tanguay Lab 120 Hour Post-fertilization zebrafish Assay for Brain Malformation (AID 2283641)
Summary of the method: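 Binary brightfield scoring of brain malformation at 120 hpf in Tropical 5D larvae held under static exposure at 28C (0.64% v/v DMSO), non-mortality endpoints skipped if dead. Positive control: 5uM trimethyltin chloride; fit versus DMSO.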

SMILES: CCOP(=S)(OCC)Oc1nc(Cl)n(C(C)C)n1
- AC50 [1]: inconclusive: 0.883 µM
- AC50 [2]: active: 8.3 µM
- AC50 [3]: inconclusive: 0.573 µM
- AC50 [4]: inconclusive: 3.39 µM

SMILES: OCCCl
- AC50 [5]: inconclusive: 50 µM
- outcome [6]: inactive
- outcome [7]: inactive
- AC50 [2]: inconclusive: 3.34 µM
- outcome [8]: inactive

SMILES: O=c1[nH]c2ccccc2n1C1CCN(CCCC(c2ccc(F)cc2)c2ccc(F)cc2)CC1
- outcome [1]: inactive
- outcome [9]: inactive

SMILES: C[C@@H]1C[C@@H]([C@H](O)CC2CC(=O)NC(=O)C2)C(=O)[C@@H](C)C1
- AC50 [10]: inconclusive: 0.133 µM
- AC50 [6]: inconclusive: 3.39 µM and inconclusive: 2.59 µM and inconclusive: 3 µM
- AC50 [8]: inconclusive: 0.241 µM

SMILES: O=[N+]([O-])c1ccc(Cl)cc1
- AC50 [11]: inconclusive: 25 µM
- AC50 [12]: inconclusive: 8.38 µM
- outcome [2]: inactive

SMILES: CC(C)(O)C#N
- AC50 [6]: inconclusive: 50 µM

SMILES: N#CC(Br)Br
- AC50 [6]: inconclusive: 50 µM
- outcome [13]: inactive

SMILES: CC1(C)[C@H](C(=O)O[C@H](C#N)c2cccc(Oc3ccccc3)c2)[C@@H]1/C=C(\Cl)C(F)(F)F
- outcome [5]: inactive
- AC50 [10]: inconclusive: 0.128 µM
- AC50 [13]: inconclusive: 12.9 µM
- outcome [14]: inactive

SMILES: Nc1ccc(-c2ccc(N)c(N)c2)cc1N
- AC50 [15]: inconclusive: 9.46 µM
- outcome [11]: inactive

SMILES: N#Cc1ccc(N(CC(N)=O)CC(F)(F)F)cc1C(F)(F)F
- AC50 [5]: inconclusive: 50 µM
- AC50 [16]: inconclusive: 30.8 µM
- AC50 [12]: inconclusive: 50.4 µM

SMILES: CCOc1ccc(C(C)(C)COCc2cccc(Oc3ccccc3)c2)cc1
- outcome [5]: inactive
- AC50 [8]: inconclusive: 166 µM
- AC50 [13]: inconclusive: 0.372 µM
- AC50 [17]: active: 1.98 µM
- outcome [14]: inactive

SMILES: NC(=S)Nc1ccccc1
- AC50 [15]: active: 41.6 µM

SMILES: CCC(=O)Nc1ccc(Cl)c(Cl)c1
- AC50 [18]: inconclusive: 0.0004 µM
- AC50 [3]: inconclusive: 20 µM
- AC50 [4]: inconclusive: 20 µM

SMILES: CC(=O)C=Cc1ccccc1
- outcome [5]: inactive

SMILES: Nc1ccc(-c2ccc(N)c(Cl)c2)cc1Cl
- AC50 [15]: active: 1.28 µM
- outcome [11]: inactive
- AC50 [9]: inconclusive: 39.8 µM

SMILES: O=NN1CCCC1
- outcome [10]: inactive

SMILES: CC1CCCC1.[C-]#[O+].[C-]#[O+].[C-]#[O+].[Mn]
- outcome [17]: inactive

SMILES: O=[N+]([O-])O
- AC50 [13]: inconclusive: 15 µM

SMILES: Cc1cc(C)cc(C)c1
- AC50 [16]: inconclusive: 127 µM

SMILES: CC(Cc1ccc(C(C)(C)C)cc1)CN1C[C@@H](C)O[C@@H](C)C1 (stereo partly drawn)
- AC50 [6]: active: 11.3 µM

SMILES: Cc1cc(=O)[nH]o1
- AC50 [1]: inconclusive: 25 µM
- AC50 [9]: inconclusive: 25 µM

SMILES: Oc1ccccc1Cl
- AC50 [10]: inconclusive: 25 µM
- AC50 [16]: inconclusive: 1.07 µM
- AC50 [8]: inconclusive: 202 µM

SMILES: O=C(O)C(F)(F)C(F)(F)C(F)(F)C(F)(F)C(F)(F)C(F)(F)C(F)(F)F
- outcome [19]: inactive
- AC50 [18]: inconclusive: 20 µM
- AC50 [3]: inconclusive: 0.0753 µM
- outcome [4]: inactive
- AC50 [17]: inconclusive: 50 µM and inconclusive: 15 µM and inconclusive: 7.12 µM
- outcome [14]: inactive
